Assay results from PMC4123608.
No constants are given. Whether binding was seen depends on the method and setting. In cells and extracts the contact can be indirect. Some results given as binding are weak or reduced against the parent protein; the word gives no strength. Sequences can lack the tags named with a protein.

Amino acid sequences for entries named in this document (tags omitted).
UniProt Q99683: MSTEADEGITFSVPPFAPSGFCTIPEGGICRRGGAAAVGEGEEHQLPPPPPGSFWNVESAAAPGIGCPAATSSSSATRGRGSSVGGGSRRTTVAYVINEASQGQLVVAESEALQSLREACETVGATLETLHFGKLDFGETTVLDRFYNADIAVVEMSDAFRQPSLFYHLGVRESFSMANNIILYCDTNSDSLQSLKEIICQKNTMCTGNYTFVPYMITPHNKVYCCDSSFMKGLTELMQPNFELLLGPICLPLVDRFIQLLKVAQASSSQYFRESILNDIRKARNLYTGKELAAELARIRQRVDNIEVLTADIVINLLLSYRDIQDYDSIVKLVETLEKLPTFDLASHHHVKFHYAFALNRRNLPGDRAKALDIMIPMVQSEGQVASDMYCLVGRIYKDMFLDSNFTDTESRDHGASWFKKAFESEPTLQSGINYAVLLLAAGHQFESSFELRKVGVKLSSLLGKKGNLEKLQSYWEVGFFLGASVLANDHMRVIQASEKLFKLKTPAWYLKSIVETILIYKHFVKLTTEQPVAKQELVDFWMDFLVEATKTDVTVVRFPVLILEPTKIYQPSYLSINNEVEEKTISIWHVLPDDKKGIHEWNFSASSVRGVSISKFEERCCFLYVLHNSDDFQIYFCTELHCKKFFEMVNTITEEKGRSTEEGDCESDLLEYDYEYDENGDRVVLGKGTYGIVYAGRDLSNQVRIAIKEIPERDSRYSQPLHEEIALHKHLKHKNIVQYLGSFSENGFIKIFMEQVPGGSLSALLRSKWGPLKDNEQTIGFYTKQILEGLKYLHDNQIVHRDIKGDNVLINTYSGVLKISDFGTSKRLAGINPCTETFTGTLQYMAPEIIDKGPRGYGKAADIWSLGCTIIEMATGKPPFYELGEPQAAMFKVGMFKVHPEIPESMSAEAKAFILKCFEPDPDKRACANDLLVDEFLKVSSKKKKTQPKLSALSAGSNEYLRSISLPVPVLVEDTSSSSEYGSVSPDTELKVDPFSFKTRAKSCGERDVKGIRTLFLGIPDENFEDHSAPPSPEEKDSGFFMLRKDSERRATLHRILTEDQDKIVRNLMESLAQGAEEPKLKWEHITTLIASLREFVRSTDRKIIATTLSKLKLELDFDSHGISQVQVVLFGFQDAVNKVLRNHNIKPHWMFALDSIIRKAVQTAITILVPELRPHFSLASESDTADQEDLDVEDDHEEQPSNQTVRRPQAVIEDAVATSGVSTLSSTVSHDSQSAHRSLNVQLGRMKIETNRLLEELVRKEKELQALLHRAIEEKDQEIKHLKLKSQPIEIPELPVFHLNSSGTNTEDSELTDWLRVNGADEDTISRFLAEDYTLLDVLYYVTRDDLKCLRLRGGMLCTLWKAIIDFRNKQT

Target: Apoptosis Signal-regulating Kinase 1 (ASK1) (UniProt Q99683)
Assay: co-IP; lysates of cells transfected with ASK1 and/or myc-GSTM4 (or GSTM4 deletion mutants); immunoprecipitation with an anti-ASK1 antibody, co-precipitated GSTM4 detected with an anti-myc antibody

B1: myc-GSTM4 (glutathione S-transferase M4, full length construct) (enzyme, UniProt Q03013 1-218)
chain: MSMTLGYWDIRGLAHAIRLLLEYTDSSYEEKKYTMGDAPDYDRSQWLNEKFKLGLDFPNLPYLIDGAHKITQSNAILCYIARKHNLCGETEEEKIRVDILENQAMDVSNQLARVCYSPDFEKLKPEYLEELPTMMQHFSQFLGKRPWFVGDKITFVDFLAYDVLDLHRIFEPNCLDAFPNLKDFISRFEGLEKISAYMKSSRFLPKPLYTRVAVWGNK
binding: binds

B2: GSTM4-CT (GSTM4 deletion mutant, 223-656 bp) (domain or fragment, UniProt Q03013 75-218)
chain: AILCYIARKHNLCGETEEEKIRVDILENQAMDVSNQLARVCYSPDFEKLKPEYLEELPTMMQHFSQFLGKRPWFVGDKITFVDFLAYDVLDLHRIFEPNCLDAFPNLKDFISRFEGLEKISAYMKSSRFLPKPLYTRVAVWGNK
binding: binds
